Data as given in PubChem BioAssay AID1439 (NMMLSC, 2008).
Out of some 220,000 compounds screened, about 770 (0.35%) were called active. Inconclusive means that the source gave no clear call. Such entries were picked first, then a sample of the others. No stated cut-off is given here; in the data, active means binding response below about 49% or above about 150%; inconclusive means no clear call, values can overlap the other calls; inactive means in between.

The chains behind the UniProt entries cited, without tags or fusion partners.
UniProt P09471, whole entry, looked up: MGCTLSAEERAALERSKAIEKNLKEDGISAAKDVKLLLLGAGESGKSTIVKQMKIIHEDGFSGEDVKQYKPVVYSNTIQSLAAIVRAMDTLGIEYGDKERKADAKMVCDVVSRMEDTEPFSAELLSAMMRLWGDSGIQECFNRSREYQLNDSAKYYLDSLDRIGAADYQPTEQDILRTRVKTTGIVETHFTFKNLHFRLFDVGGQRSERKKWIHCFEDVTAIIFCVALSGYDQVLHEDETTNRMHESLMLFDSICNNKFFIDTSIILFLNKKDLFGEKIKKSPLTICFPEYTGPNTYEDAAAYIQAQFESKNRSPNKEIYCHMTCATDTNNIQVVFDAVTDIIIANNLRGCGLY

Each compound was assayed against Guanine nucleotide-binding protein G(o) subunit alpha (Homo sapiens) (UniProt P09471) (assay: RGS7-Galphao binding modulators, primary screen, biochemical, multiplexed bead flow cytometry (AID 1439;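 further: fluorescent Galphao held in activated GDP-AlF4 state binding bead-coupled RGS7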)). Conditions: at 10 µM, actives lie on both sides.

Compound | binding response (% of control)
O=C(c1ccco1)N1CCN(C(=O)N2CCCC2)CC1 | inactive: 105%
N#CC1=C(S)N(c2ccccc2)C(c2ccc(-c3ccc(Cl)c(Cl)c3)o2)NC1=O (centres undefined) | inconclusive: 91.7%
CC(C)=CCC/C(C)=C/C(N)=O | inconclusive: 11.7%
COc1ccc(-c2cc(C#N)nc(Cl)n2)cc1 | inconclusive: 94.4%
CCCCc1nc2sc3c(SCCN(C)C)ncnc3c2c2c1CCC2 | inconclusive: 43.5%
CCOc1ccc(CN2CCN(Cc3nc4c(s3)CCCC4)CC2CCO)cc1 (centres undefined) | inactive: 92.9%
Cc1cccc(NC(=O)Cn2c([N+](=O)[O-])cnc2C)c1C | inactive: 105%
Cn1c(-c2cc3ccccc3oc2=O)nc2ccccc21 | inconclusive: 107%
Cc1ccc([N+](=O)[O-])c(C(=O)N/N=C/c2cccnc2)c1 | inconclusive: 103%
NC(=O)c1sc2nc(-c3cccnc3)ccc2c1N | inconclusive: 122%
Cc1ccc(C(=O)CSc2nnc(-c3snnc3C)n2C2CC2)cc1 | inconclusive: 81.8%
C[C@@H]1CC=C[C@H]2[C@H]1C(=O)N(Cc1ccccc1)[C@H]2c1ccc(-c2ccoc2)cc1F | inconclusive: 91.2%
O=C(COC(=O)c1ccc(OC(F)F)cc1)NCCCN1CCCC1=O | inconclusive: 80.2%
COc1ccc(C2C(C(C)=O)=C(O)C(=O)N2c2nccs2)c(OC)c1 (centres undefined) | inconclusive: 90.7%
Cn1c(=O)c(C(=O)Nc2ccccc2S(N)(=O)=O)c(O)c2ccccc21 | inconclusive: 113%
CC(C)[C@@H]1NC(=O)c2cc([N+](=O)[O-])cc(F)c2NCCC[C@@H](C(N)=O)NC(=O)[C@H](CO)NC1=O | inactive: 110%
COc1ccc(COC(=O)N/N=C(\C)CC(=O)Nc2ccc(Cl)cn2)cc1 | inconclusive: 43.6%
COc1ccc(NC(=O)c2nc[nH]c2C(=O)N[C@@H](C)C(=O)OC(C)(C)C)cc1 | inconclusive: 129%
Cn1c(SCC(O)c2ccccc2)nnc1-c1ccc2ccccc2c1 (centres undefined) | inconclusive: 49.1%
CSc1nc2ccc(NS(=O)(=O)c3ccc(Br)s3)cc2s1 | inconclusive: 119%
CC(NC(=O)C1CCCCC1)C(c1cccs1)N1CCN(C)CC1 (centres undefined) | inconclusive: 89.7%
Cc1[nH]c2ccccc2c1SCc1nnc(SCc2ccc(Cl)cc2)n1C | inconclusive: 93.4%
CCNc1nc(NCC)nc(N/N=C/c2cc(OC)c(OC)c(OC)c2)n1 | inconclusive: 107%

Compound | binding response (% of control)
Cc1cc(C)n2nc(C(=O)Nc3ccc(S(=O)(=O)N(C)C)cc3)nc2n1 | inconclusive: 19.8%
O=C(NCCN1CCN(S(=O)(=O)c2ccc([N+](=O)[O-])cc2)CC1)C(=O)Nc1ccccc1 | active: 221% [activator]
COc1ccc(OCC(O)CNC(=O)Nc2cc(C)cc(C)c2)cc1 (centres undefined) | inconclusive: 128%
OC(CNC1Cc2ccccc2C1)COc1ccc(Cl)cc1 (centres undefined) | inconclusive: 119%
C/C(=N\NC(=O)c1ccncc1)c1cc2ccccc2o1 | inconclusive: 97%
CN(C)S(=O)(=O)c1cccc(NC(=O)COC(=O)CCC(=O)c2cccs2)c1 | inconclusive: 96.9%
COc1ccc(S(=O)(=O)NCc2ccc(C)cc2)cc1 | inactive: 94.4%
CCN(CC)S(=O)(=O)c1ccc(C)c(NC(=O)COC(=O)C=C(C)C)c1 | inconclusive: 95.2%
O=C(COC(=O)c1ccc[nH]c1=O)Nc1ccc(S(=O)(=O)N2CCCC2)cc1 | inconclusive: 99.9%
O=C(Cc1ccc(F)cc1)Nc1cccc(-c2ccc3nncn3n2)c1 | inconclusive: 110%
CC(=O)C(Cc1cccc(F)c1)(Cc1cccc(F)c1)C(C)=O | inconclusive: 126%
COc1cccc(/C=C/C(=O)OCC(=O)NCCc2ccccc2)c1 | inconclusive: 112%
Cc1nn(CCOc2ccc(Br)cc2)c(C)c1[N+](=O)[O-] | inconclusive: 71.7%
COCCNC(=O)c1ccc2c3n(nc2c1)-c1ccccc1CO3 | inconclusive: 88%
COc1ccc(CCNC(=O)CCNC(=O)c2ccc(Cl)cc2)cc1OC | inactive: 104%
CCCN(CCC)C(=O)C1CC(=O)OC12CCCCC2 (centres undefined) | inactive: 110%
CC(C)(C)OC(=O)N1CCC(CNC(=O)c2ccccc2)CC1 | inconclusive: 122%
COc1ccccc1C(c1c(N)n(C)c(=O)n(C)c1=O)C(C)[N+](=O)[O-] (centres undefined) | inconclusive: 111%
Cc1cc(Nc2ccc(F)c(F)c2)nc(-c2ccccc2O)n1 | inconclusive: 108%
COc1ccc(C2=NN(CN3C(=O)C(=O)c4ccccc43)C(c3ccc(OC)cc3)C2)cc1 (centres undefined) | inactive: 97.7%
CCOc1ccc(N2C(=O)c3ccc(C(=O)OCC(=O)N(CC)C4CCS(=O)(=O)C4)cc3C2=O)cc1 (centres undefined) | inconclusive: 94.6%
CC(C)(C)NC(=O)CSc1nc(N)c(NC(=O)c2ccccc2F)c(=O)[nH]1 | inconclusive: 114%
O=c1c(/C=N/N2CCOCC2)c(C(F)(F)F)[nH]n1-c1ccccc1 | inconclusive: 98.9%

Reformatted as comma-separated lines: part of the list above
Compound,binding response (% of control)
O=C(c1ccco1)N1CCN(C(=O)N2CCCC2)CC1,inactive: 105%
N#CC1=C(S)N(c2ccccc2)C(c2ccc(-c3ccc(Cl)c(Cl)c3)o2)NC1=O (centres undefined),inconclusive: 91.7%
CC(C)=CCC/C(C)=C/C(N)=O,inconclusive: 11.7%
Cn1c(-c2cc3ccccc3oc2=O)nc2ccccc21,inconclusive: 107%
NC(=O)c1sc2nc(-c3cccnc3)ccc2c1N,inconclusive: 122%
Cc1ccc(C(=O)CSc2nnc(-c3snnc3C)n2C2CC2)cc1,inconclusive: 81.8%
COc1ccc(C2C(C(C)=O)=C(O)C(=O)N2c2nccs2)c(OC)c1 (centres undefined),inconclusive: 90.7%
COc1ccc(NC(=O)c2nc[nH]c2C(=O)N[C@@H](C)C(=O)OC(C)(C)C)cc1,inconclusive: 129%
Cc1[nH]c2ccccc2c1SCc1nnc(SCc2ccc(Cl)cc2)n1C,inconclusive: 93.4%
Cc1cc(C)n2nc(C(=O)Nc3ccc(S(=O)(=O)N(C)C)cc3)nc2n1,inconclusive: 19.8%
COc1ccc(OCC(O)CNC(=O)Nc2cc(C)cc(C)c2)cc1 (centres undefined),inconclusive: 128%
OC(CNC1Cc2ccccc2C1)COc1ccc(Cl)cc1 (centres undefined),inconclusive: 119%
C/C(=N\NC(=O)c1ccncc1)c1cc2ccccc2o1,inconclusive: 97%
COc1cccc(/C=C/C(=O)OCC(=O)NCCc2ccccc2)c1,inconclusive: 112%
CCCN(CCC)C(=O)C1CC(=O)OC12CCCCC2 (centres undefined),inactive: 110%
COc1ccccc1C(c1c(N)n(C)c(=O)n(C)c1=O)C(C)[N+](=O)[O-] (centres undefined),inconclusive: 111%
CCOc1ccc(N2C(=O)c3ccc(C(=O)OCC(=O)N(CC)C4CCS(=O)(=O)C4)cc3C2=O)cc1 (centres undefined),inconclusive: 94.6%
CC(C)(C)NC(=O)CSc1nc(N)c(NC(=O)c2ccccc2F)c(=O)[nH]1,inconclusive: 114%

More structures.

Compound | binding response (% of control)
COCCCN1C(=O)c2ccc(C(=O)OCC(=O)NCCc3ccccc3)cc2C1=O | inconclusive: 112%
CC(C)OCCCN1CN(S(=O)(=O)c2cccs2)c2nc3ccccc3nc21 | inconclusive: 88.9%
CSc1nc(-c2ccc(C)cc2)nc(N)c1C#N | inconclusive: -101%
Nc1nc(-c2cccnc2)nn1C(=O)c1ccc(Cl)cc1 | inconclusive: 89.2%
CC(C)Cc1nnc(NC(=O)CCC(=O)Nc2ccc3cn[nH]c3c2)s1 | inconclusive: 131%
N#Cc1cn(CCOC(=O)c2cccc(C(F)(F)F)c2)c(=O)[nH]c1=O | inconclusive: 127%
CCC1(CC)C(=O)NC(=O)NC1=NCCc1ccc(O)cc1 | inactive: 108%
O=C(COc1nc2ccccc2nc1N1CCOCC1)Nc1cccc(S(=O)(=O)N2CCCCC2)c1 | inactive: 103%
CCc1nnc(NC(=O)CN2CCN(c3ccccc3F)CC2)s1 | inactive: 107%
Cc1ccc(CC2CC(=O)N(c3ccc(C)cc3)C2=O)cc1 (centres undefined) | inconclusive: 78.8%
Cc1ccc(C)n1-c1ccc(C(=O)/C=C/N(C)C)cc1 | inconclusive: 63.8%
O=C1C(NS(=O)(=O)c2cccs2)=C(N2CCN(c3ccccc3)CC2)C(=O)c2ccccc21 | inactive: 95.5%
CCOC(=O)c1sc2nc(C)[nH]c(=O)c2c1C | inconclusive: 59.9%
O=C(Nc1ccccc1C(F)(F)F)c1ccc(F)c(S(=O)(=O)N2CCOCC2)c1 | inactive: 98.6%
C=C(C)Cn1c(N2CC(C)CC(C)C2)nc2c1c(=O)[nH]c(=O)n2C (centres undefined) | inconclusive: 77.2%
C#CCOCCOCCOCCNc1nc(N2CCOCC2)nc(N2CCN(C(=O)[C@H]([C@@H](C)CC)n3cc([C@@H](N)CC(C)C)nn3)CC2)n1 | inactive: 118%
CC(C(=O)NCc1ccco1)c1ccc([N+](=O)[O-])cc1 (centres undefined) | inconclusive: 110%
Cc1cc(NC(=O)c2ccc(NC(=O)C3CC3)cc2)no1 | inconclusive: 110%
CCOC(=O)Cn1nc(C)n(-c2ccc(F)cc2)c1=O | inconclusive: 110%
CCCOc1ccc(-c2nnn(CC(=O)N3CCCCC3)n2)cc1 | inconclusive: 92.7%
CC1(C)CC(=O)C(=CN2CCOCC2)C(=O)C1 | inconclusive: 112%
Cc1ccc(-n2c(C)n[nH]c2=S)cc1 | inactive: 119%
O=C(O)COc1ccccc1/C=N/NC(=O)CSc1nc2ccccc2c(=O)n1-c1ccc(Cl)cc1 | inconclusive: 98.3%

Compound | binding response (% of control)
CCC(C)[C@@H](N)C(=O)N/N=C/c1cccc2nccnc12 (some centres undefined) | inconclusive: 133%
O=Cc1c(N2CCSCC2)nc2ccccn2c1=O | inconclusive: 112%
NS(=O)(=O)c1ccc(-c2ccc(/C=C3\C(=O)Nc4cc(Cl)ccc43)o2)cc1 | inactive: 90.7%
CCOc1ccccc1N1C(=O)CC(Nc2ccc(N3CCOCC3)cc2)C1=O (centres undefined) | inactive: 78.5%
CC(=O)c1ccc(NC(=O)C2CC(=O)N(C(C)C)C2)cc1 (centres undefined) | inactive: 100%
CCOC(=O)c1nc(C)sc1-c1ccnn1S(=O)(=O)c1ccc(C)cc1 | inconclusive: 7.75%
CCCc1cc(-c2nc(-c3ccc(Cl)cc3)cs2)ccn1 | inactive: 101%
CC(C)C(=O)NS(=O)(=O)c1ccc(NS(C)(=O)=O)cc1 | inconclusive: 60.8%
O=C(Nc1cccc(Cl)c1)NC1(C(=O)NCc2cccs2)CCCCC1 | active: 232% [activator]
Cc1ccc(S(=O)(=O)NNC(=S)Nc2ccc(Cl)cc2)cc1 | inconclusive: 104%
Cc1ccc(CCSc2ccc(F)cc2)cn1 | inconclusive: 100%
CCOC(=O)c1ccc(NC(=O)c2nc[nH]c2C(=O)NC)cc1 | inconclusive: 83.2%
FC(F)(F)c1cccc(NC(=S)Nc2ccc(Cl)c(Cl)c2)c1 | inconclusive: 106%
O=C(CSc1ccsc1[N+](=O)[O-])N1CCN(c2ccccn2)CC1 | inactive: 105%
O=C(CSCCOc1ccccc1)NCc1ccncc1 | inconclusive: 182%
CCOC(=O)c1ccc(-n2c(CN3CCC(C(N)=O)CC3)nc3ccc([N+](=O)[O-])cc3c2=O)cc1 | inconclusive: 76.5%
Cc1ccc(C(=O)N2CCN(S(=O)(=O)c3ccccc3[N+](=O)[O-])CC2)o1 | inconclusive: 90.8%
Cc1ccc(NC(=S)N(C)C)cc1C | inconclusive: 92.1%
O=C(CNC(=O)c1ccccc1)NCC(=O)OCc1ccccc1Cl | inconclusive: 87.8%
COC(=O)c1sccc1NC(=S)N1CCC(C(N)=O)CC1 | inconclusive: 113%
